Measured values: PMC5532651, “Bistratamides M and N, Oxazole-Thiazole Containing Cyclic Hexapeptides Isolated from Lissoclinum bistratum Interaction of Zinc (II) with Bistratamide K” (Marine Drugs, 2017)

Experiment: Zn (II) titration followed by 13C and 1H NMR
Assay type: binding
Conditions: CD3CN

Bistratamide K [Bistratamide K (3)]
13C NMR changes on Zn (II) addition (ZnCl2, 2 and 4 equiv., 3 mg peptide in 0.75 mL): downfield carbon chemical shifts at positions C-5 (δC 168.5), C-10 (δC 170.7) and C-13 (δC 174.6) | 1H NMR changes on Zn (II) addition (ZnCl2, 4 equiv.): no changes were observed
